EP0399716A1, “Hypoallergenic steroidal anesthetic/hypnotic compositions” (INNOVET, INC., priority 1989, dated 1990)
Values after ≈ are worked out from the molar mass of the structure shown.

Columns and labels:
[1] = pH 7.4
[2] = physchem; settings: water
[3] = physchem; settings: aqueous with cosolvent or surfactant or cyclodextrin, thermodynamic from solid

## CC(=O)[C@H]1CC[C@H]2[C@@H]3CC[C@H]4C[C@H](O)CC[C@]4(C)[C@H]3C(=O)C[C@]12C (stereo in doubt) [alfaxalone, 3α-hydroxy-5α-pregnane-11,20-dione]
[1]
  effect of the buffer on complexation: no significant effect
43.5% w/v HPCD adjusted to pH 7, sonicated one hour, freeze-dried
  alfaxalone content per gram complex: 116.4 ± 1.1 mg per gram
43.5% w/v HPCD, sonicated 24 hours, lyophilized
  active drug per gram of complex: 126 mg per gram
[2]
  solubility: < 5 µg/mL
[2]; thermodynamic from solid
  solubility: 3.6 µg/mL (≈ 10.8 µM)
[3]
  solubility: 76900 µg/mL (≈ 231000 µM)
